The assay concerns the target bHLH35, full length in the bait vector pGBKT7 (BD) (Phalaenopsis aphrodite). The experiment in a line: two-hybrid; Matchmaker GAL4 yeast two-hybrid; SPK1 as prey in pGADT7 (AD), bHLH35 as bait in pGBKT7 (BD); growth on medium lacking Leu, Trp and His with 3-amino-1,2,4 triazole and X-Gal.

These are yes or no findings as the source states them, for the method shown. Binding calls can cover weak binding; strength is not graded here. Where a sequence is shown, tags or fusion partners need not be part of it.

B1: Spike Activator 1 (SPK1), full length in the prey vector pGADT7 (AD) (protein, UniProt A0A5Q0QTC1 1-304)
chain: MALEAVVFHDLLSCNVKDMYSPWDIAGLVDEDKTLPFYDEWKASCSSLTGQGFQEPPDLGGATAISATAQKENKAPATCSESNGRKKRRRTKGLTNQEEAENQRMTHIAVERNRRKQMNEYLAVLRSLMPASYAQRGDQASIVGGAINYVKELQQIVQFLEVRKQLKHRGDNRVQDLKPLASFFSFPQYSLTDTAAAAAGGVDTVPANPSAVADIEVTIVESHASLKILCRRRPKQLLKLVVGLQSLRLSTLHLNATSFGAMVLFTFSLKVEEDCQLATVDEIATAVHQIVVRIHEEEGFYTSS
With B1, the binding entry was “binds”.

Source of the values: publication PMC6862315.
